{"source": "PubChem BioAssay AID493014", "about": "(National Center for Advancing Translational Sciences (NCATS), 2011)", "note": "Hit rate of the full screen: of about 340,000 compounds, about 170 (0.05%) were called active. Inconclusive results, whose numbers are uncertain, are shown with a selection of clear calls. The call rests on the fitted dose curve; in most records, active means well fitted inhibition curve with a large enough effect in the signal ratio, with a control signal flat (not every such curve was filed as active); inconclusive means small, poorly fitted or top-dose-only effect, or effect the other way, or a change in a side signal; inactive means flat fitted curve, though single readings scatter; the % refers to the signal ratio. A potency beside an inconclusive call is a rough fit, not a confirmed value. Potency means the concentration at half of the fitted maximal effect.", "data": [{"test": "qHTS Assay to Find Inhibitors of Chronic Active B-Cell Receptor Signaling;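 on activity change, negative = inhibition: plate controls were basal doxycycline-induced cells for no effect and cells given 10 µM MG132 for full effect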", "conditions": "ABC-DLBCL IkBa-CBG/CBR reporter, luminescence ratio (green luciferase fused to IkBa over red control in TMD8 lymphoma cells), 4 h; activity change, negative = inhibition: at 46.1 µM (top of the series)", "summary_of_the_method": "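Doxycycline induced both beetle luciferases in TMD8 lymphoma cells; IKK-driven degradation limits the IkappaBalpha-fused green signal, while red luminescence normalises for cell number and nonspecific effects. Compounds tested up to 46 uM, 4 hrs.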", "values": [{"molecule": "O=C(NCCN1CCN(C(=O)c2cccc(OC(F)F)c2)CC1)c1cccc(OC(F)F)c1", "activity change, negative = inhibition": "inconclusive: 1.1%"}, {"molecule": "O=C(NC(=S)Nc1ccccc1N1CCOCC1)c1sc2ccccc2c1Cl", "activity change, negative = inhibition": "inactive"}, {"molecule": "O=C(Nc1ccc2c(c1)nc1n2CCOC1)c1ccco1", "Potency": "inconclusive: 22.4 µM [falling, partial curve]"}, {"molecule": "N#CC/C(N)=N/NC(=O)CCCNc1ncc(C(F)(F)F)cc1Cl", "activity change, negative = inhibition": "inconclusive: -19.6%"}, {"molecule": "CN(C)CCNc1ncnc2c1cnn2-c1cccc(Cl)c1", "activity change, negative = inhibition": "inconclusive: 10.9%"}, {"molecule": "COc1ccc(CCNC(=O)CSc2nnnn2-c2ccc(OC)c(OC)c2)cc1OC", "activity change, negative = inhibition": "inconclusive: 9.48%"}, {"molecule": "CCOC(=O)c1c(C)n(C)c2ccc(O)c(CN3CCC(C)CC3)c12", "activity change, negative = inhibition": "inconclusive: -3.58%"}, {"molecule": "c1ccc2c(c1)c1cccc3ccc4cccc2c4c31", "activity change, negative = inhibition": "inactive"}, {"molecule": "Oc1[nH]c2ccccc2c1N=Nc1c(F)c(F)c(C(F)(F)F)c(F)c1F", "activity change, negative = inhibition": "inconclusive: 8.72%"}, {"molecule": "CC(=O)Nc1cccc(C(=O)OCC(=O)NC(=O)c2ccccc2)c1", "activity change, negative = inhibition": "inconclusive: 9.58%"}, {"molecule": "O=C1/C(=C/c2ccc3c(c2)OCO3)Oc2cc(OCC(=O)N3CCC[C@H]3C(=O)O)ccc21", "activity change, negative = inhibition": "inactive"}, {"molecule": "CCN(CC)S(=O)(=O)c1ccc(C(=O)OC2CCCCC2CN(C)C)cc1", "note": "(centres undefined)", "activity change, negative = inhibition": "inactive"}, {"molecule": "O=C1c2ccccc2C(=O)N1OCCOCCOCCON1C(=O)c2ccccc2C1=O", "activity change, negative = inhibition": "inconclusive: 3.4%"}, {"molecule": "CCN(C(=O)CSc1ncnc2sc(C)c(C)c12)C1CCS(=O)(=O)C1", "note": "(centres undefined)", "activity change, negative = inhibition": "inconclusive: -20.8%"}, {"molecule": "Cc1c(C(=O)Nc2ccc(C(=O)O)cc2)nnn1-c1ccccc1", "Potency": "inconclusive: 8.91 µM [falling, partial curve]"}, {"molecule": "COc1ccc(NC(=O)CSc2nn3c(=O)c(C)nnc3s2)cc1", "activity change, negative = inhibition": "inactive"}, {"molecule": "c1ccc(CC2CCN(c3nc4ccccc4n4cnnc34)CC2)cc1", "Potency": "inconclusive: 2.31 µM [rising, full curve, poor fit]"}, {"molecule": "O=C(CC1Nc2ccccc2NC1=O)Nc1ccc2c(c1)OCO2", "note": "(centres undefined)", "Potency": "inconclusive: 35.5 µM [rising, single point]"}, {"molecule": "O=C(Nc1cc(Cl)ccc1Oc1ccccc1)c1ccccc1F", "activity change, negative = inhibition": "inconclusive: 23.7%"}, {"molecule": "Cc1cccc2cc(C#N)c(NCCNS(=O)(=O)c3ccc4c(c3)OCCO4)nc12", "Potency": "inconclusive: 22.4 µM [falling, partial curve, poor fit]"}, {"molecule": "Cc1cc(C)cc(NC(=O)c2cc3c(=O)n4ccccc4nc3s2)c1", "Potency": "inconclusive: 3.98 µM [falling, partial curve]"}, {"molecule": "CCC(=O)c1ccc(OC(C)C(=O)NC2(C#N)CCCCC2)cc1", "note": "(centres undefined)", "activity change, negative = inhibition": "inactive"}, {"molecule": "O=C(O)c1cccc(N/N=C/c2ccc(F)c(F)c2)c1", "Potency": "inconclusive: 25.1 µM [falling, partial curve]"}, {"molecule": "CN(Cc1ccc(F)cc1)C(=O)c1cccc(NS(=O)(=O)c2ccccc2)c1", "activity change, negative = inhibition": "inactive"}, {"molecule": "N#Cc1nc(COc2ccccc2Cl)oc1NCc1ccco1", "activity change, negative = inhibition": "inactive"}, {"molecule": "Brc1ccccc1OCCCCN1CCCCC1", "activity change, negative = inhibition": "inactive"}, {"molecule": "N#Cc1ccccc1OCC(=O)NCC1(N2CCCCC2)CCCCC1", "Potency": "inconclusive: 15.8 µM [falling, partial curve]"}, {"molecule": "N#Cc1cccc(CN2CCC(=O)N([C@H](CO)Cc3ccccc3)CC2)c1", "activity change, negative = inhibition": "inactive"}, {"molecule": "CN(Cc1cn(Cc2ccccc2)nc1-c1ccc2c(c1)OCO2)Cc1nccn1C", "activity change, negative = inhibition": "inactive"}, {"molecule": "c1ccc(-c2nnc(NC3=NCCC3)o2)cc1", "Potency": "inconclusive: 20 µM [falling, partial curve]"}, {"molecule": "CCOC(=O)c1c(O)c2cc(Cl)ccc2n(CC)c1=O", "activity change, negative = inhibition": "inactive"}, {"molecule": "O=c1[nH]cnc2cc(-c3ccccc3)sc12", "Potency": "inconclusive: 22.4 µM [falling, single point]"}, {"molecule": "CCC(C)Sc1nc2c(c(=O)[nH]c(=O)n2C)n1C", "note": "(centres undefined)", "activity change, negative = inhibition": "inconclusive: -0.824%"}, {"molecule": "CN(C)/C=N/c1nc(-c2ccc3c(c2)OCO3)cs1", "activity change, negative = inhibition": "inconclusive: 0.143%"}, {"molecule": "N#Cc1ccc(/C=N/NC(=O)c2cc(-c3cccs3)nc3ccccc23)cc1", "activity change, negative = inhibition": "inconclusive: 17.4%"}, {"molecule": "COc1ccc(NC(=O)CN2C(=O)COc3ccc(S(=O)(=O)N4CCCCCC4)cc32)cc1", "activity change, negative = inhibition": "inconclusive: 2.46%"}, {"molecule": "Cc1sc(NC(=O)/C=C/c2ccco2)c(C(=O)O)c1C", "Potency": "inconclusive: 4.47 µM [rising, full curve, poor fit]"}, {"molecule": "O=C(O)CSc1cnc2ccccc2n1", "Potency": "inconclusive: 5.17 µM [rising, partial curve, poor fit]"}, {"molecule": "COc1ccc([C@H]2CC(=O)C=C(c3cccc(C(C)C)c3)C2)cc1OC", "activity change, negative = inhibition": "inactive"}, {"molecule": "CCC1CN(C(=O)N2CCC(C(=O)Nc3ccccc3F)CC2)c2ccccc2O1", "note": "(centres undefined)", "activity change, negative = inhibition": "inactive"}, {"molecule": "C=CCn1c(C)cc(-c2csc(NCC)n2)c1C", "activity change, negative = inhibition": "inactive"}, {"molecule": "O=C1c2cccc3cccc(c23)C(=O)N1CC1CCN(S(=O)(=O)c2ccc(F)cc2)CC1", "activity change, negative = inhibition": "inconclusive: -1.77%"}, {"molecule": "C=CCn1c(N)c(C(=O)NC2CCCCC2)sc1=S", "Potency": "inconclusive: 16.4 µM [falling, partial curve]"}, {"molecule": "CCOC(=O)CNC(=O)N1CCc2ccc(NC(=O)c3ccccc3Cl)cc2C1", "Potency": "inconclusive: 25.1 µM [falling, single point]"}, {"molecule": "Cc1ccc(NS(=O)(=O)c2c(C)[nH]c(=O)[nH]c2=O)c(Br)c1", "activity change, negative = inhibition": "inconclusive: 9.84%"}, {"molecule": "Cc1ccc2nc(/C(C#N)=C/c3ccc(-c4cccc([N+](=O)[O-])c4)o3)[nH]c2c1", "activity change, negative = inhibition": "inconclusive: 8.83%"}, {"molecule": "Cc1nn(C)c(C(=O)N/N=C/c2ccc(Br)cc2)c1Cl", "activity change, negative = inhibition": "inactive"}, {"molecule": "CC(C)(CC(=O)N1CCN(c2ccc(Cl)cc2)CC1)CC1=NS(=O)(=O)c2ccccc2N1", "Potency": "inconclusive: 35.5 µM [falling, single point]"}, {"molecule": "CCc1nc(N)c(C#N)c(-c2ccccc2OC)c1C", "activity change, negative = inhibition": "inactive"}, {"molecule": "CCOC(=O)CN1CC23C=CC(O2)C(C(=O)NCc2cccs2)C3C1=O", "note": "(centres undefined)", "activity change, negative = inhibition": "inconclusive: -9.23%"}, {"molecule": "CCOc1ccccc1N(CC(=O)NCCc1ccc(OC)c(OC)c1)S(=O)(=O)c1ccccc1", "activity change, negative = inhibition": "inconclusive: -0.494%"}, {"molecule": "Cn1cnnc1SCC(=O)NCCC(c1ccccc1)c1ccccc1", "Potency": "inconclusive: 13 µM [falling, partial curve, poor fit]"}, {"molecule": "CC(=O)/C(=N\\Nc1ccccc1)Sc1nnc(-c2ccccc2)n1-c1ccccc1", "activity change, negative = inhibition": "inactive"}, {"molecule": "COc1ccc(NC(=O)c2cc(-c3ccc(C)cc3)on2)cc1", "activity change, negative = inhibition": "inconclusive: -19%"}, {"molecule": "O=C(c1ccco1)N1CCN(CC(O)Cn2c3ccccc3c3ccccc32)CC1", "note": "(centres undefined)", "activity change, negative = inhibition": "inconclusive: 16.3%"}, {"molecule": "CCOCCCn1c(=NC(=O)c2cccs2)c(C#N)cc2c(=O)n3cccc(C)c3nc21", "activity change, negative = inhibition": "inactive"}, {"molecule": "CNc1nc(C)nc(-n2nc(C)cc2C)n1", "activity change, negative = inhibition": "inactive"}, {"molecule": "CCCCSc1nnc(-c2c[nH]c3ccccc23)n1C", "activity change, negative = inhibition": "inactive"}, {"molecule": "O=C(CCC1CCCN(C(=O)c2ccc3[nH]ccc3c2)C1)N1CCN(c2ccccn2)CC1", "note": "(centres undefined)", "activity change, negative = inhibition": "inactive"}, {"molecule": "Cc1cc(NC(=O)CCN2CCN(Cc3ccccc3)CC2)ccc1Br", "activity change, negative = inhibition": "inconclusive: -2.21%"}, {"molecule": "COc1ccc(CN2CCN(c3cccc(C)c3C)CC2)cc1OC", "activity change, negative = inhibition": "inconclusive: 14.8%"}, {"molecule": "CCN(CC)CCCNC(=O)c1ccc2c3n(nc2c1)-c1ccc(Cl)cc1CO3", "activity change, negative = inhibition": "inactive"}, {"molecule": "CCCCCc1c(C)c(C#N)c2nc3ccccc3n2c1-n1ccnc1C", "activity change, negative = inhibition": "inconclusive: 0.816%"}, {"molecule": "O=C(CSCc1ccccc1)NCCc1ccc(F)cc1", "activity change, negative = inhibition": "inactive"}, {"molecule": "Cc1ccc(SCC(=O)Nc2ccc(C(=O)Nc3ccc(O)cc3)cc2)cc1", "activity change, negative = inhibition": "inconclusive: 5.42%"}, {"molecule": "CC(=O)N(c1ccccc1)C1CC(C)N(C(=O)c2ccccc2)c2ccccc21", "note": "(centres undefined)", "activity change, negative = inhibition": "inconclusive: -6.77%"}, {"molecule": "COC(=O)c1cc(CNC(=O)c2cccc(Cl)c2)ccc1OC", "activity change, negative = inhibition": "inconclusive: 5.48%"}, {"molecule": "CC(C)c1ccc(N2CC(C)(C)C2=O)cc1", "activity change, negative = inhibition": "inconclusive: -2.86%"}, {"molecule": "CCN(CC(=O)Nc1c(F)cccc1F)C(=O)CCCc1c[nH]c2ccccc12", "activity change, negative = inhibition": "inconclusive: -12.4%"}, {"molecule": "CCN(CC)C(=O)c1[nH]cnc1C(=O)Nc1ccc(Cl)cc1", "activity change, negative = inhibition": "inconclusive: 14.7%"}, {"molecule": "O=C(CCN1CCOCC1)c1ccc(N2CCCCC2)cc1", "activity change, negative = inhibition": "inconclusive: 23.6%"}, {"molecule": "CCCCC1=CC2=CC(=O)C(C)(OC(=O)CC)C(=O)C2=CN1CCc1ccc(Br)cc1", "note": "(centres undefined)", "activity change, negative = inhibition": "inactive"}, {"molecule": "CN1CCN(/N=C/c2ccc(N(c3ccccc3)c3ccccc3)cc2)CC1", "activity change, negative = inhibition": "inactive"}, {"molecule": "CCOC(=O)Cn1c(=S)[nH]c2c(oc3ccc(Cl)cc32)c1=O", "activity change, negative = inhibition": "inconclusive: 18.2%"}, {"molecule": "Oc1[nH]c2ccccc2c1N=Nc1ccccc1", "Potency": "inconclusive: 3.55 µM [falling, single point]"}, {"molecule": "CCOC(=O)c1c(O)c2ccccc2n(C)c1=O", "Potency": "inconclusive: 10 µM [falling, partial curve]"}, {"molecule": "COC(=O)C1CCN(C(=O)/C=C/c2ccc(OC)cc2)CC1", "Potency": "inconclusive: 0.58 µM [falling, partial curve, poor fit]"}, {"molecule": "C=CCn1c(N2CCCCCC2)nc2c1c(=O)n(C)c(=O)n2C", "Potency": "inconclusive: 3.16 µM [rising, full curve, poor fit]"}, {"molecule": "COc1ccc(NS(=O)(=O)c2ccc3c(c2)N(C(C)=O)CCO3)cc1", "Potency": "inconclusive: 10 µM [falling, partial curve, poor fit]"}, {"molecule": "Nc1nnc(CC(=O)N/N=C\\c2cc([N+](=O)[O-])ccc2O)s1", "activity change, negative = inhibition": "inactive"}, {"molecule": "Cc1cc(OCC(=O)Nc2ccncc2)ccc1[N+](=O)[O-]", "activity change, negative = inhibition": "inactive"}, {"molecule": "CCCCC[C@@H]1C=C(C(=O)O)[C@H](c2ccc(Br)cc2)N1S(=O)(=O)c1ccc(C)cc1", "activity change, negative = inhibition": "inactive"}, {"molecule": "C=C(C)COc1ccc(-c2nc(N)nc(C)c2-c2ccc(OC)cc2)c(O)c1", "activity change, negative = inhibition": "inconclusive: 0.162%"}, {"molecule": "COc1cc(C(F)(F)F)c(C(=O)N(C)Cc2ccc(Cl)c(Cl)c2)cn1", "Potency": "inconclusive: 6.31 µM [falling, single point]"}]}]}
